Test results reported in patent US20170247715A1.

B1: C-terminally GS-tagged PIRIN2 (Arabidopsis thaliana Pirin-like protein At2g43120) (protein, not shown: large carriers)
chain: MRAAINRANSLGGLFSFRFIRNIKSMSSSTSQDFVSRPVIKKVFAKLQKEGDGAVVRRGISRSEQKLLDPFLMLDEFSVSPPAGFPDHPHRGFETVTYVLEGGITHQDFKGHKGTIYAGDVQWMTAGRGIIHSEMPEEEVNKGLQLWINLSSNEKMIEPNYQELSHSDIPKAEQNGVEVKVIAGESMGIQSPVYTRTPTMFLDFTLQPGAQIHQNVPESWNAFAYILESGEGGGVFSSSNSSPIPAHSVVVFGPGNDGVSVWNKSSSKQLRFVLIAGEPIGEPVVQYGPFVMNTQAEIDMTIEDYHYGKNGFEMAKYWRSQ
B2: N-terminally GS-tagged PIRIN4 (Arabidopsis thaliana Pirin-like protein At1g50590) (protein, not shown: large carriers)
chain: MPISEKSSATNTRLVVKKLFARQLHEGFGAVVRRSIGRFEFRYFDPFLVLDEFSVSAPAGFPDHPHRGFETVTYMLEGEILHEDCEGHKGVIREGGLQWMTAGKGIVHSEMPSSNSNGITHNKGLQLWINLSSRQKLVEPSYQEIESKDIAETEKDGVRVRVIAGEWNGVKSKICTRTPTMYLDFTLSPGSRISQPIPLHWNAFVYVLQGHGHFGDSKLQHSAAAAHHLLVLGLGGDMLEAWNGSDSGLPLRFILVAGEPIGEPMVQFGPFVMNTQEEIDETIDDFENFRNGFEKARHWKSQAASALGLF

How the values were obtained:
Assay in all cases: tandem affinity purification (GS tag) from Arabidopsis cell suspension culture, mass spectrometry
[1] = biological target: Cytochrome bd ubiquinal oxidase (Arabidopsis thaliana)
[2] = biological target: PLDPT phospholipase (Arabidopsis thaliana)
[3] = biological target: a protein kinase
[4] = biological target: an alpha/beta hydrolase protein

Binder	binding [1]	binding [2]	binding [3]	binding [4]
B1	binds			
B2		binds	binds	binds

Results are given in words; binding and its absence hold for the method and conditions named. In cells and extracts the contact can be indirect. These calls come from enrichment with a bait or labelling near it, and not all partners need be listed. Tags and fused reporters may be left off the sequences shown.
